PubChem BioAssay AID1508597 – Cure First, 2020
Assay: 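Knock-downs altering ovarian cancer cell survival with or without PARP inhibitor rucaparib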 (primary screen). Cell system: human ovarian carcinoma lines grown from tumours: OCI-P5x (papillary serous) and OCI-C5x (clear cell). Reagents: siRNA pool against human genes, 1.25 pmol siRNA per well. Duration: 72 h or 96 h, depending on the cell culture. Conditions: rucaparib 20 µM (about IC30) or vehicle, present until read-out. Measurement: 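Luminescent ATP-based viability assay read 72 or 96 h after transfection, depending on culture, given as normalised percent viability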. Reading the numbers: viability, normalised: higher = more viable cells remaining. Call rule: 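Active when normalised viability falls below 80 percent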. Meaning of the calls: active = viability under 80%; inactive = viability 80% or more.
The deposit covers about 2,100 reagents; this is a random part of them. 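Calls flag viability under 80% in either arm, not effects specific to rucaparib; the reference for percent is not stated.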 The numbers tell different reagents against one gene apart. The record does not give: the 100% reference.

| gene | pool no. | rucaparib or vehicle | cell line | technical replicate | viability, normalised (%) | call |
| --- | --- | --- | --- | --- | --- | --- |
| IP6K3 | 1 | Rucaparib | OCI-C5x (clear cell) | 1 | 65.1 | active |
| IP6K3 | 1 | Rucaparib | OCI-C5x (clear cell) | 2 | 53.8 | active |
| IP6K3 | 1 | Rucaparib | OCI-C5x (clear cell) | 3 | 72.2 | active |
| IP6K3 | 1 | Rucaparib | OCI-P5x (serous) | 1 | 117 | inactive |
| IP6K3 | 1 | Rucaparib | OCI-P5x (serous) | 2 | 117 | inactive |
| IP6K3 | 1 | Rucaparib | OCI-P5x (serous) | 3 | 109 | inactive |
| IP6K3 | 1 | Vehicle | OCI-C5x (clear cell) | 1 | 53.3 | active |
| IP6K3 | 1 | Vehicle | OCI-C5x (clear cell) | 2 | 49.5 | active |
| IP6K3 | 1 | Vehicle | OCI-C5x (clear cell) | 3 | 61.3 | active |
| IP6K3 | 1 | Vehicle | OCI-P5x (serous) | 1 | 93.3 | inactive |
| IP6K3 | 1 | Vehicle | OCI-P5x (serous) | 2 | 98.6 | inactive |
| IP6K3 | 1 | Vehicle | OCI-P5x (serous) | 3 | 83.4 | inactive |
| IP6K3 | 2 | Rucaparib | OCI-C5x (clear cell) | 1 | 69.8 | active |
| IP6K3 | 2 | Rucaparib | OCI-C5x (clear cell) | 2 | 73.6 | active |
| IP6K3 | 2 | Rucaparib | OCI-C5x (clear cell) | 3 | 81.8 | inactive |
| IP6K3 | 2 | Rucaparib | OCI-P5x (serous) | 1 | 71.3 | active |
| IP6K3 | 2 | Rucaparib | OCI-P5x (serous) | 2 | 92.7 | inactive |
| IP6K3 | 2 | Rucaparib | OCI-P5x (serous) | 3 | 107 | inactive |
| IP6K3 | 2 | Vehicle | OCI-C5x (clear cell) | 1 | 49.3 | active |
| IP6K3 | 2 | Vehicle | OCI-C5x (clear cell) | 2 | 67.8 | active |
| IP6K3 | 2 | Vehicle | OCI-C5x (clear cell) | 3 | 45.4 | active |
| IP6K3 | 2 | Vehicle | OCI-P5x (serous) | 1 | 83.9 | inactive |
| IP6K3 | 2 | Vehicle | OCI-P5x (serous) | 2 | 62 | active |
| IP6K3 | 2 | Vehicle | OCI-P5x (serous) | 3 | 79.2 | active |
